Test [1] has as its target ClfB (clumping factor B of S. aureus, NCBI Protein GI 15925620) (Staphylococcus aureus) (UniProt Q99R07). Description: Y2H screen, human keratinocyte cDNA library.
For test [2] the target is unchanged. Nature of the test: pull-down and immunoprecipitation with recombinant proteins.
The target is the same in test [3]. Description: pull-down.
The target is the same in test [4]. Description: Y2H screen.

Chains of the proteins cited; added tags and fusions are not shown. Lines headed by an entry give the natural chain unless they say otherwise; changes in a name come on top.
UniProt P02538: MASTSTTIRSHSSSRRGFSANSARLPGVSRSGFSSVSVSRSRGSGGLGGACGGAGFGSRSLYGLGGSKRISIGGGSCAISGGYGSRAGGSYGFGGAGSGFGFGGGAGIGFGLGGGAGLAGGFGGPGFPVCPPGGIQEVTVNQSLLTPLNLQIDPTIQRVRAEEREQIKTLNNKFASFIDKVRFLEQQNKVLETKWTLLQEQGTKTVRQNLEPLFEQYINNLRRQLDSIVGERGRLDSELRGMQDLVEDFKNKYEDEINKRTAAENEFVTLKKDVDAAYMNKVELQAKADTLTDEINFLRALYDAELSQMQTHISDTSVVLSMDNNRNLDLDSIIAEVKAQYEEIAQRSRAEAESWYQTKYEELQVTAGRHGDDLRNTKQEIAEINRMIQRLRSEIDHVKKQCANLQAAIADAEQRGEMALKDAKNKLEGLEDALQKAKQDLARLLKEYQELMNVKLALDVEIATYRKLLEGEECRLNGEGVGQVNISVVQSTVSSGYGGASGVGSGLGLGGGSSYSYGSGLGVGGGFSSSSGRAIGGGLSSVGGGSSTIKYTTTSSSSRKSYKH
UniProt P13647: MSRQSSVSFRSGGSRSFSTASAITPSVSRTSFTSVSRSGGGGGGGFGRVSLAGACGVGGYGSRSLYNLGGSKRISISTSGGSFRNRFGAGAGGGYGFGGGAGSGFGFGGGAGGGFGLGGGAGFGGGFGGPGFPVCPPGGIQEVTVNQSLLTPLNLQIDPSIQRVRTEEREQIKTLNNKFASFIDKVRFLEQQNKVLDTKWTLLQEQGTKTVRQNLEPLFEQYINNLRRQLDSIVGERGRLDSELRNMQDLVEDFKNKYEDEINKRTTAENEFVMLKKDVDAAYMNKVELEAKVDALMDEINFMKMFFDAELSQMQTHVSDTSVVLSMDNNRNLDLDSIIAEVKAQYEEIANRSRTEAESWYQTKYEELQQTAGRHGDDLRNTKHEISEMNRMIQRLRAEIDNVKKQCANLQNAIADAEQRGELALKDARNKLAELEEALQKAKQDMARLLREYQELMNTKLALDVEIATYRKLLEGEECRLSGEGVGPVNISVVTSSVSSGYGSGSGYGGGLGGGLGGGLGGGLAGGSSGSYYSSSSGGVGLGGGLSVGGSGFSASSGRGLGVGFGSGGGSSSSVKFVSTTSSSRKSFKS
UniProt P05787: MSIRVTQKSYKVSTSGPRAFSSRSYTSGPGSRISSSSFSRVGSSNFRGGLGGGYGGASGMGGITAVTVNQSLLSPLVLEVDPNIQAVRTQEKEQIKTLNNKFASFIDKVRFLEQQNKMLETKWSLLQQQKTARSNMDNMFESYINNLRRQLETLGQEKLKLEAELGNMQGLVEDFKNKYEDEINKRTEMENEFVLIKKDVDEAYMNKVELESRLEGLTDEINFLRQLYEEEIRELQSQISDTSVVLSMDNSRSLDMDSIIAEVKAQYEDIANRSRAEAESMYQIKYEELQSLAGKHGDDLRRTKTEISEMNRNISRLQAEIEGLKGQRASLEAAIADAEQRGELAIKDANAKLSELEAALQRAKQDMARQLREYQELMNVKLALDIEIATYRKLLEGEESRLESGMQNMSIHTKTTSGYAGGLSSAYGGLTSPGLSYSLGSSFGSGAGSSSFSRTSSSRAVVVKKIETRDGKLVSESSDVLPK

Results are given in words; binding and its absence hold for the method and conditions named. Some binding calls cover weakened binding; strength is not graded here.

As for KRT6A (from UniProt P02538 1-564), the binding result in test [1] and in test [2] was “binds” in each case.

With KRT5 (from UniProt P13647 1-590), the binding entry in test [1] and in test [2] was “binds” throughout.

As to “KRT8 (Keratin 8, NCBI Protein GI 50368987) (from UniProt P05787 374-483)”, the binding result in test [3], in test [4], in test [1] and in test [2] was “binds” in each case.

The values above are taken from patent publication US20100216191A1, “Method for Manufacturing a Modified Peptide” (PROCOMCURE BIOTECH GMBH, priority 2007, published 2010).
